The test deals with integrin very late antigen-4 (VLA-4, composed of α4β1 subunits) (UniProt P13612). As to the kind of experiment: co-immunoprecipitation from B-ALL cell lysates.

By UniProt entry, the sequences of proteins in these tests, tags left out. Where a name states a change or a piece, a line headed by the entry shows the natural chain unless it says otherwise.
UniProt P13612: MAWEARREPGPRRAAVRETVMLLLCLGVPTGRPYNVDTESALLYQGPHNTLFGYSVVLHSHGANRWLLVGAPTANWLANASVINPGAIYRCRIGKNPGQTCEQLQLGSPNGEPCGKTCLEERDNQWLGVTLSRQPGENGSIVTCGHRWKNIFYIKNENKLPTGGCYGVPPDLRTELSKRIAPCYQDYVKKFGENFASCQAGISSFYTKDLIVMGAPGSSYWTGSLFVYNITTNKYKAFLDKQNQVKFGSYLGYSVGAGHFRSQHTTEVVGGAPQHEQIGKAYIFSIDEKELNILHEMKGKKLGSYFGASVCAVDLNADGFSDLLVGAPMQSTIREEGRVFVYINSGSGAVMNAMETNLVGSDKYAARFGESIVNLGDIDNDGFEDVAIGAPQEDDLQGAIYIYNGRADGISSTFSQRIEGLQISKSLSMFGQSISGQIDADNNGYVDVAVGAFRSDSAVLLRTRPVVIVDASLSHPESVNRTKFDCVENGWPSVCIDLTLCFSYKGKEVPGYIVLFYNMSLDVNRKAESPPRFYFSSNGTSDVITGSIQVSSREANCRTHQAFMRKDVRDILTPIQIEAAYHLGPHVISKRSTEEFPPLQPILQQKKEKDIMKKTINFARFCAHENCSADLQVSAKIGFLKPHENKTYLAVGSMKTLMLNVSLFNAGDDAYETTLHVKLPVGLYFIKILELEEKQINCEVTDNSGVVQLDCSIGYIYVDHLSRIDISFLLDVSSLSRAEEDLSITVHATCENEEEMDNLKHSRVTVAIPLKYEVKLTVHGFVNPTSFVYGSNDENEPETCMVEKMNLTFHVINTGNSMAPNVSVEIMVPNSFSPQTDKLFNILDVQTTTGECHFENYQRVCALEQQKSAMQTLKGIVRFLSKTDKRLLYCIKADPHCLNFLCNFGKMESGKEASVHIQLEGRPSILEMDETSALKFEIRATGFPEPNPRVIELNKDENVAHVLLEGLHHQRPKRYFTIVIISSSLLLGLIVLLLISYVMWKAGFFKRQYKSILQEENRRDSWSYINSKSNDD
UniProt P21926: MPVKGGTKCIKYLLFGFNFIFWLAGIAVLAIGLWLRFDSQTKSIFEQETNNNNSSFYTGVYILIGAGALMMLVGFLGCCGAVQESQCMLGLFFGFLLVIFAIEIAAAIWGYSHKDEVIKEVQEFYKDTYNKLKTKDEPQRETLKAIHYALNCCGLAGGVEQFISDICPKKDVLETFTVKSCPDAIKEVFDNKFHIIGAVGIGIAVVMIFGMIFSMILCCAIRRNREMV

No constants are given. Whether binding was seen depends on the method and setting. Binding seen in cells or lysates may run through a third protein. Some entries that bind do so weakly or less than the wild type.

With “human CD9 protein (from UniProt P21926 2-228)”, the binding entry was “binds”.
